The other results are listed elsewhere or left out. Most values lie at the level of the controls, where differences are scatter.

By UniProt entry, the sequences of proteins in these tests, tags left out. Where a name states a change or a piece, a line headed by the entry shows the natural chain unless it says otherwise.
UniProt Q8CHT1: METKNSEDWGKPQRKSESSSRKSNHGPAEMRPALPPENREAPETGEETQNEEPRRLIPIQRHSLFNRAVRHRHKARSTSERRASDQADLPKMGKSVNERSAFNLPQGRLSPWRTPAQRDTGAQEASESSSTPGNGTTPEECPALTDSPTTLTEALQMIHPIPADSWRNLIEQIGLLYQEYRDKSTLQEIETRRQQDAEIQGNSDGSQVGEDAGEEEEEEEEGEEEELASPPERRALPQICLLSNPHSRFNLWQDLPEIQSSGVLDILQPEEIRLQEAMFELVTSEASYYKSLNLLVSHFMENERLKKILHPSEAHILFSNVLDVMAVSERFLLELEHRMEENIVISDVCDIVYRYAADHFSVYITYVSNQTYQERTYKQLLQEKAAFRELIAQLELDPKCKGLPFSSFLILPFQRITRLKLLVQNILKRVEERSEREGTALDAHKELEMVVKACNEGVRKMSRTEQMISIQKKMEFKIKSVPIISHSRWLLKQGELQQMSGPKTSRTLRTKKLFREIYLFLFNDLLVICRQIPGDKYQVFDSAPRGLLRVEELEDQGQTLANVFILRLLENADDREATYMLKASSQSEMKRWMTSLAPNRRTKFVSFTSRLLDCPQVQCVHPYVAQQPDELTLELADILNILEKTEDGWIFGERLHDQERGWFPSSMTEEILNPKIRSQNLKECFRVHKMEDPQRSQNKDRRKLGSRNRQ
UniProt Q8R4X3: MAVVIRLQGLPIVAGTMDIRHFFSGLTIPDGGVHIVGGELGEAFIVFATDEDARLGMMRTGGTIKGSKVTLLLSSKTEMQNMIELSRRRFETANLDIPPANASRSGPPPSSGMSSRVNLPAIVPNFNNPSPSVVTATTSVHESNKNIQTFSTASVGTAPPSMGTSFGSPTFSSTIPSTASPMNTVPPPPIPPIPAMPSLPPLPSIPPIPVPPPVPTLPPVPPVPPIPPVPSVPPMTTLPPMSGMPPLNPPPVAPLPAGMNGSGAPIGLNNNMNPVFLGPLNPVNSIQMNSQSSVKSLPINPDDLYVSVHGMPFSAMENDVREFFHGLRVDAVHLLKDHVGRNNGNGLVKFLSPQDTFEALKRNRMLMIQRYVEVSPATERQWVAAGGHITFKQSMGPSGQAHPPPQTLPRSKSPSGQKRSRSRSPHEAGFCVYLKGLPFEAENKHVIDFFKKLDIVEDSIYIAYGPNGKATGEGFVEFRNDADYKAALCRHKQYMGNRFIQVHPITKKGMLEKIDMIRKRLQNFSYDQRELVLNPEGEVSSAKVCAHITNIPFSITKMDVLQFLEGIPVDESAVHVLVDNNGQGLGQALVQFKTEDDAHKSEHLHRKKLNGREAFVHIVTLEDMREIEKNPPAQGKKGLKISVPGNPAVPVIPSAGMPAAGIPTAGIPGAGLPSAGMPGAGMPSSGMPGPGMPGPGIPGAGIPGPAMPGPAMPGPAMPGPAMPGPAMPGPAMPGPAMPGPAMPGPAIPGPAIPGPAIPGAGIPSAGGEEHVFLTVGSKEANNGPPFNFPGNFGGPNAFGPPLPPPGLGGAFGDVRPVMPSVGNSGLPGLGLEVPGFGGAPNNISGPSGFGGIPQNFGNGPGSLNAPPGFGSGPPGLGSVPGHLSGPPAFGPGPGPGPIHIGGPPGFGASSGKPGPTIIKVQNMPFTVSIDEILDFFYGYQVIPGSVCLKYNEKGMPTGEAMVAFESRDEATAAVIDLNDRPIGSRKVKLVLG
UniProt Q8R035, whole entry: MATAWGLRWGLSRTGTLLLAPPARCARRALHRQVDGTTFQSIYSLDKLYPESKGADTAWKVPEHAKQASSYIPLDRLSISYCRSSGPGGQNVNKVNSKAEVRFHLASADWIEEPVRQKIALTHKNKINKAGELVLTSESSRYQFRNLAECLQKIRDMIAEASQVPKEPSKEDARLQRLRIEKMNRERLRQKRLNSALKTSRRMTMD
UniProt Q8K4Q8: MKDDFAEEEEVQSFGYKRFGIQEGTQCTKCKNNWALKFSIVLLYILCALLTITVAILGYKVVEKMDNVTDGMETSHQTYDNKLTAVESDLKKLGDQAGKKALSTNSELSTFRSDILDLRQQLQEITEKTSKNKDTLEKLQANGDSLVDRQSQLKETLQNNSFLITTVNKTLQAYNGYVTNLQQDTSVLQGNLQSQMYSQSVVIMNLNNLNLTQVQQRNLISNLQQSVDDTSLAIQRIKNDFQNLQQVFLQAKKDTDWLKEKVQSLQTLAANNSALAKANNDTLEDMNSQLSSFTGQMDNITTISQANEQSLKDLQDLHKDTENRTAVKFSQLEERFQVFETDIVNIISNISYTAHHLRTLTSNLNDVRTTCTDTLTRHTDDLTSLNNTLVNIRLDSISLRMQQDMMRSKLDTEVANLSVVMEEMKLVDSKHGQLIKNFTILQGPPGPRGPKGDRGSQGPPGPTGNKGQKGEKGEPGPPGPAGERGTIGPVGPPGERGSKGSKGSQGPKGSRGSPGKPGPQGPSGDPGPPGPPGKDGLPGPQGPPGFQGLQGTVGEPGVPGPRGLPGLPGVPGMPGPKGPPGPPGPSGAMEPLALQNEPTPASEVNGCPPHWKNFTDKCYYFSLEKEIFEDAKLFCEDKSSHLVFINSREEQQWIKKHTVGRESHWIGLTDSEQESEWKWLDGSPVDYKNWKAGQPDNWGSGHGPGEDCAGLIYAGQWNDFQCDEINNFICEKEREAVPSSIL
UniProt Q8CHY6: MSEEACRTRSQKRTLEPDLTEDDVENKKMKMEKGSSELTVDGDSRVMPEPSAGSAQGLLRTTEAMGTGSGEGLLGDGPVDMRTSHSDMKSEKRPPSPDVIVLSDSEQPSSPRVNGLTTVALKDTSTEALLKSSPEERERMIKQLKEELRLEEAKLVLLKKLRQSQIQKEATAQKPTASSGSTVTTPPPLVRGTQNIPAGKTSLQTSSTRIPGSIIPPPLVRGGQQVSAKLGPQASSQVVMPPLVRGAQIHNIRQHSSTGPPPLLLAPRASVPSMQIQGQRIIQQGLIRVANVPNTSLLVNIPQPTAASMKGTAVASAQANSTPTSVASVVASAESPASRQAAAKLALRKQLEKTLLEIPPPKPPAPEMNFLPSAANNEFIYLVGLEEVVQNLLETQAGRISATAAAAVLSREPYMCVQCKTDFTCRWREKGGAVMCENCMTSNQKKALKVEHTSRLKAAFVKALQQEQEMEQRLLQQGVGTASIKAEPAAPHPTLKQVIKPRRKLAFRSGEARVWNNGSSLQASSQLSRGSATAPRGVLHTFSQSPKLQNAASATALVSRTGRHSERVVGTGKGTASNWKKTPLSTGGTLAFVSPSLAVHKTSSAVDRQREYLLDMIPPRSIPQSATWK
UniProt Q8K1I3: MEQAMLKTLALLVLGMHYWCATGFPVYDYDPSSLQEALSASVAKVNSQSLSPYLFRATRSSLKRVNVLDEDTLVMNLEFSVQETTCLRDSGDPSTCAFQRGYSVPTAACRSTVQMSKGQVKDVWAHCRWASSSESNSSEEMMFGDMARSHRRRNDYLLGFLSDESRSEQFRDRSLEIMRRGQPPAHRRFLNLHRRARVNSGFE
UniProt Q8R326: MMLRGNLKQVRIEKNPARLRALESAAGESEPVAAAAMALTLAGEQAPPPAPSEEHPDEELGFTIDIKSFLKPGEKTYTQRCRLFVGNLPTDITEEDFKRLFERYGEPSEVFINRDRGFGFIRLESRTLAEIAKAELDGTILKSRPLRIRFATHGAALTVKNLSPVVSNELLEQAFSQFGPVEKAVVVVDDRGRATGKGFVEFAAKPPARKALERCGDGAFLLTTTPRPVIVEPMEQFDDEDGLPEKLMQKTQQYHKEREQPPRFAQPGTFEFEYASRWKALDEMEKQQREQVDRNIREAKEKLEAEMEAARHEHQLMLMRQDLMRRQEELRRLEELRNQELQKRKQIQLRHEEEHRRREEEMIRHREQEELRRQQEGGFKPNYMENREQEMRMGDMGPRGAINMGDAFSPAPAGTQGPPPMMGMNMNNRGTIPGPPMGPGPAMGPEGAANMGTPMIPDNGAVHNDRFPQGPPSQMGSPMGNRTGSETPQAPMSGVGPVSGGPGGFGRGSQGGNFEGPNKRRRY
UniProt Q8K0B2: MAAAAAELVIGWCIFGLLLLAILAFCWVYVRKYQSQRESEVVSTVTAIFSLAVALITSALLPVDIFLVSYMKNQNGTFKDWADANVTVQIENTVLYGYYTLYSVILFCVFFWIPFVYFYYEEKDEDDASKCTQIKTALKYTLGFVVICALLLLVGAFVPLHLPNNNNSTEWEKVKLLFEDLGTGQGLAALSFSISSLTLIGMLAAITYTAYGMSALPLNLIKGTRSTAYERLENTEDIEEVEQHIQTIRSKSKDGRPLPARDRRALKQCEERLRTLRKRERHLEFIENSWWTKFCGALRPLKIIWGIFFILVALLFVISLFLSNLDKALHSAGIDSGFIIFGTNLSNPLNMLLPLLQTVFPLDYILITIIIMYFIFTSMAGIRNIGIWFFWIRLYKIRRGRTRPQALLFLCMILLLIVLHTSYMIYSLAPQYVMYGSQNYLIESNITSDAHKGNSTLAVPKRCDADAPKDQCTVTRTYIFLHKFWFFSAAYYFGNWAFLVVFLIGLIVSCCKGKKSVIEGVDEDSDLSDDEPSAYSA
UniProt Q8VCE2, whole entry: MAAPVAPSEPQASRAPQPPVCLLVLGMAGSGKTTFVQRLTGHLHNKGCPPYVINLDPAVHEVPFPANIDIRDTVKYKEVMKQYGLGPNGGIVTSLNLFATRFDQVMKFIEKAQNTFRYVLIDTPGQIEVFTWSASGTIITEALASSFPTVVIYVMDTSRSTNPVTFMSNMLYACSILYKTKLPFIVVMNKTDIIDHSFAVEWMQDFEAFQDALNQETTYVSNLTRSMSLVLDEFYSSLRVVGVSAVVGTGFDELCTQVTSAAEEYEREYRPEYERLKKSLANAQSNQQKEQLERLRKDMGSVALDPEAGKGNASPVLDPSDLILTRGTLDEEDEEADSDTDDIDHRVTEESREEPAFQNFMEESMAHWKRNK
UniProt Q8JZZ7: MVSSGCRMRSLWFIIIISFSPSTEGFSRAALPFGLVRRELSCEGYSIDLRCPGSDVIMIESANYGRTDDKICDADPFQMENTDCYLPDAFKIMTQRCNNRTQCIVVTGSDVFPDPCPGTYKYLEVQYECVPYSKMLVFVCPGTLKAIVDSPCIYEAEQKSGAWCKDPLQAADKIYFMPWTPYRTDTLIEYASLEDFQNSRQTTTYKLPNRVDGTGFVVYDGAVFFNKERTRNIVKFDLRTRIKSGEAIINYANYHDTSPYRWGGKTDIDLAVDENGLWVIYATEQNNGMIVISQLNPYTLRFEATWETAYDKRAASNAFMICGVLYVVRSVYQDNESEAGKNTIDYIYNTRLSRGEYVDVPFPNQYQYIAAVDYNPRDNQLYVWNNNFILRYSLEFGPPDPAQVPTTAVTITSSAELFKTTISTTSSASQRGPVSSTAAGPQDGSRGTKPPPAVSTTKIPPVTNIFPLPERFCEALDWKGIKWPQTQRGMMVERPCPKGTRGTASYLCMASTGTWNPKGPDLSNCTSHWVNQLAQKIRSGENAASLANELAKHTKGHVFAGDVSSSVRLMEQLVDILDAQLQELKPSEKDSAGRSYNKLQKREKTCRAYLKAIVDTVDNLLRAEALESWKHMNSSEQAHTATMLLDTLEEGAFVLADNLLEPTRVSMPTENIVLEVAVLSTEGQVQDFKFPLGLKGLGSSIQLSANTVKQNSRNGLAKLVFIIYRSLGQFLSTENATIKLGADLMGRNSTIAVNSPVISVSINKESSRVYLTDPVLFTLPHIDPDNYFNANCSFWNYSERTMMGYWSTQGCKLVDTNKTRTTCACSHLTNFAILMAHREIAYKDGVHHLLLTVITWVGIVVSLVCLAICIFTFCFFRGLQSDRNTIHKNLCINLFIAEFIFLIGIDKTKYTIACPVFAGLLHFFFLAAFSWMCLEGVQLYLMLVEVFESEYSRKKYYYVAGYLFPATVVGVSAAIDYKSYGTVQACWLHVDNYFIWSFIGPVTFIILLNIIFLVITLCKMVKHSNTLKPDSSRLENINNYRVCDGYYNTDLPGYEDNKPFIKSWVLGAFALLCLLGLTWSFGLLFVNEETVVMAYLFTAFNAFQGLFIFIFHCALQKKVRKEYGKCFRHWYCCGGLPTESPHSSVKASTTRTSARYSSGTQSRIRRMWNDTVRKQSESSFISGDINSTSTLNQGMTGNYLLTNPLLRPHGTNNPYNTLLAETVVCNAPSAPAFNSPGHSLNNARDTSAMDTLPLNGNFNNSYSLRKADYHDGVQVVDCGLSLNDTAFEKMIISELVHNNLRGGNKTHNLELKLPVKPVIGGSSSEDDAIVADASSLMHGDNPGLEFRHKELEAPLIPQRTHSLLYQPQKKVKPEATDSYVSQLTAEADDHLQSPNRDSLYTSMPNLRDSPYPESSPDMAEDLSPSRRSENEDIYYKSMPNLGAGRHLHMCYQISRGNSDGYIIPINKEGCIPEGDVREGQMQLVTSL
UniProt Q8R2Q8: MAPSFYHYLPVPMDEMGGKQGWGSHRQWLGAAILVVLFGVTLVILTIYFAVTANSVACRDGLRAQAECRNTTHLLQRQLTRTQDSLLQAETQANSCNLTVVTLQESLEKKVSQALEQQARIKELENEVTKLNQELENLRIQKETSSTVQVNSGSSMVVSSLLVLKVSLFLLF

Compound in this test: CN[C@@H]1C[C@H]2O[C@@](C)([C@@H]1OC)n1c3ccccc3c3c4c(c5c6ccccc6n2c5c31)C(=O)NC4 [staurosporine]
In words: log2 fold change of pooled soluble protein (PISA), ligand vs vehicle (log2 ratio); higher = more thermally stabilized. To be noted: ligand concentration: 20 uM; assay format: PISA pool 52.9/55.5/58.6 C.
Consider UniProt Q8CHT1, for which the “log2 fold change of pooled soluble protein” value (shortened to “log2 fold change”) is -0.163.

For the target UniProt Q8R1S0, the “log2 fold change” value is 0.0405.

In the case of UniProt Q8K440, the “log2 fold change” value amounted to 0.0416.

UniProt Q8CGC7: the “log2 fold change” value worked out at 0.0429.

Regarding UniProt Q8R574, the “log2 fold change” value is -0.111.

Consider UniProt Q8JZN7, for which the “log2 fold change” value is 0.134.

Consider UniProt Q8K0C8, for which the “log2 fold change” value is -0.346.

Turning to UniProt Q8R4X3, the “log2 fold change” value is 0.527.

On to UniProt Q8R570, for which the “log2 fold change” value was -0.175.

For UniProt Q8JZQ9, the “log2 fold change” value is -0.0402.

Take UniProt Q8CHY3: the “log2 fold change” value is -0.046.

UniProt Q8R035: the “log2 fold change” value was -0.0166.

In the case of UniProt Q8R550, the “log2 fold change” value was -0.027.

As for UniProt Q8R3L2, the “log2 fold change” value came out at 0.0439.

Turning to UniProt Q8R3F5, the “log2 fold change” value was found to be 0.0186.

For the target UniProt Q8VBV3, the “log2 fold change” value was -0.207.

With UniProt Q8K0C4, the “log2 fold change” value was found to be 0.131.

UniProt Q8K1N2: the “log2 fold change” value is -0.0476.

With UniProt Q8K4Q8, the “log2 fold change” value is -0.00792.

For the target UniProt Q8CHY6, the “log2 fold change” value is -0.106.

Consider UniProt Q8K1I3, for which the “log2 fold change” value was 0.0956.

On to UniProt Q8R2U0, for which the “log2 fold change” value was 0.348.

On to UniProt Q8K1A5, for which the “log2 fold change” value worked out at 0.0262.

With UniProt Q8R4N0, the “log2 fold change” value was -0.00243.

For UniProt Q8R326, the “log2 fold change” value is -0.113.

Consider UniProt Q8CHR6, for which the “log2 fold change” value is -0.0483.

UniProt Q8K0B2: the “log2 fold change” value was -0.089.

With UniProt Q8VCE2, the “log2 fold change” value came out at 0.0527.

In the case of UniProt Q8JZS0, the “log2 fold change” value was -0.0116.

Consider UniProt Q8JZZ7, for which the “log2 fold change” value is -0.248.

With UniProt Q8CHW4, the “log2 fold change” value stood at 0.0495.

Consider UniProt Q8R4U7, for which the “log2 fold change” value was -0.0509.

As for UniProt Q8R2Q8, the “log2 fold change” value was 0.0254.

UniProt Q8K273: the “log2 fold change” value is -0.112.

As to UniProt Q8VCG4, the “log2 fold change” value came out at 0.163.

In the case of UniProt Q8VBT0, the “log2 fold change” value stood at 0.0923.

Consider UniProt Q8R5C5, for which the “log2 fold change” value turned out to be 0.0909.

The values are drawn from the supplement of paper PMC12819154, “High-throughput peptide-centric local stability assay extends protein–ligand identification to membrane proteins, tissues and bacteria” (Nature Structural & Molecular Biology, 2025).
